According to PubChem BioAssay AID1259415 (National Center for Advancing Translational Sciences (NCATS), 2018):
Several values for one entry are separate records, joined by “and”; a condition that tells them apart may be missing. Equal values may be shown once. The campaign covered roughly 410,000 compounds. About 18,000 (4.4%) were called active. Inconclusive means that the source gave no clear call. Such entries were picked first, then a sample of the others. Rule as the data show it: active = activity change below about -60%; inconclusive = no clear call, values can overlap the other calls; inactive = above about -39%.
% is scaled to controls: 0 for no effect and ±100 for the full control effect.

Assay: qHTS Assay for inhibitors of the human cytomegalovirus (HCMV)
Conditions: HFF cells, HCMV-luciferase reporter, 72 h; at 57.5 µM; active compounds read low
How it was run: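 Two compound doses tested in HFFs infected with HCMV-luciferase, MOI 1 PFU/cell, 72 h at 37C. Lysate luminescence read with OneGlo; data normalized against buffer-only and 10uM Salinomycin inhibitor controls.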
In the case of `COc1ccc(-c2coc3c(C(=O)NC4CCCCC4)cccc23)c(C)c1`, the activity change, negative = inhibition is reported as inconclusive: -49.7%.
With `CCn1ncc(/C=C2/SC(=S)NC2=O)c1C` the activity change, negative = inhibition was inconclusive: -43.6%.
For `COc1cc(NC(=O)Cn2cc(C(=O)c3ccc(F)cc3)c(=O)c3ccc(C)nc32)cc(OC)c1`, the activity change, negative = inhibition was inconclusive: -53.6%.
For `CC(=O)O/C(=C1\CC2C3CC=C4CC(OC(C)=O)CCC4(C)C3CCC2(C)C1=O)C(F)(F)F` (configuration not stated), the activity change, negative = inhibition was inconclusive: -55.2%.
In the case of `CN(C)c1ccc(NC2=C(Cl)C(=O)c3ccccc3C2=O)cc1`, the activity change, negative = inhibition is reported as active: -97.3%.
With `CC(=O)Nc1ccc(S(=O)(=O)N(C)CC(=O)N(C)Cc2sccc2C)cc1` the activity change, negative = inhibition was inconclusive: -43.6%.
With `COc1ccccc1C(CNC(=O)COc1ccccc1C)N1CCCC1` (configuration not stated) the activity change, negative = inhibition was inconclusive: -44.3%.
In the case of `Cc1c(NN=C(C#N)C#N)c(=O)n(-c2ccccc2)n1C`, the activity change, negative = inhibition is reported as inactive: -29.9%.
For `N/C(CC(=O)NC1CCCCC1)=N\OCC(=O)Nc1ccc(Cl)c(Cl)c1`, the activity change, negative = inhibition was inconclusive: -44.6%.
In the case of `CC(=O)c1ccc(NC(=O)COC(=O)c2ccccc2N=Nc2ccc(N(C)C)cc2)cc1`, the activity change, negative = inhibition is reported as inconclusive: -41%.
With `CCCCN1C(=O)C(O)(CC(=O)c2ccc(C(C)(C)C)cc2)c2ccccc21` (configuration not stated) the activity change, negative = inhibition was inconclusive: -58.8%.
For `C[C@@H]1CN=C2N(CCNC(=O)CCC3CCCCC3)[C@H](Cc3ccc(O)cc3)CN21`, the activity change, negative = inhibition was inconclusive: -44.9%.
With `CCC1(CC)Cc2ccccc2-c2nc(CN(C)C)[nH]c(=O)c21` the activity change, negative = inhibition was inconclusive: -45.3%.
For `O=C(N/N=C\c1ccc(-c2cccc(Cl)c2)o1)C(=O)NC1CCCC1`, the activity change, negative = inhibition was inconclusive: -45.2%.
With `COc1cc(C(=S)N2CCCCC2)ccc1OCC(=O)N1CCCC1` the activity change, negative = inhibition was inactive: 56%.
In the case of `CCOC(=O)C1=CCN(S(=O)(=O)c2ccccc2F)C1c1cccc(Cl)c1` (configuration not stated), the activity change, negative = inhibition is reported as inconclusive: -41.7%.
For `O=S(=O)(c1ccccc1)N(CC1CO1)c1cccc2ccccc12` (configuration not stated), the activity change, negative = inhibition was inconclusive: -40.6%.
In the case of `OCc1ccccc1SSc1ccccc1CO`, the activity change, negative = inhibition is reported as active: -98.3%.
With `Cc1ccc(N(CC(=O)N2CCCCCC2)S(C)(=O)=O)cc1Cl` the activity change, negative = inhibition was inconclusive: -43.1%.
With `COc1ccc(CCNC(=O)c2ccc(CS(=O)(=O)Cc3ccc(C)cc3)o2)cc1OC` the activity change, negative = inhibition was inconclusive: -42.3%.
In the case of `CC(=O)c1cccc(NS(=O)(=O)c2ccc(N/C=C\C(=O)c3ccc(F)cc3)cc2)c1`, the activity change, negative = inhibition is reported as inconclusive: -55.8%.
In the case of `CSCCOC(=O)c1[nH]c2c(c1C)C(=O)CC(c1ccco1)C2` (configuration not stated), the activity change, negative = inhibition is reported as inconclusive: -50.5%.
In the case of `O=C(OCCCN1C(=O)c2ccccc2C1=O)c1ccco1`, the activity change, negative = inhibition is reported as inactive: 14%.
With `COc1ccc(Cc2c(O)nc(SCC(=O)NC34CC5CC(CC(C5)C3)C4)[nH]c2=O)cc1` the activity change, negative = inhibition was inconclusive: -43.3% and inconclusive: -42.6%.
For `COc1ccc(C2SCC(=O)N2CCc2ccc(OC)c(OC)c2)cc1` (configuration not stated), the activity change, negative = inhibition was active: -70.7%.
For `O=C(c1ccc2oc(Cc3ccc(Cl)cc3)nc2c1)N1CCCCC1CCO` (configuration not stated), the activity change, negative = inhibition was inactive: 26.6%.
In the case of `CCOc1ccc(OCCC(=O)Nc2ccc(F)cc2C)cc1`, the activity change, negative = inhibition is reported as inconclusive: -48.4%.
For `NC(CO)C(=O)NNCc1ccc(O)c(O)c1O` (configuration not stated), the activity change, negative = inhibition was inconclusive: -56.2%.
For `COc1ccc(N2CCN(C(=O)c3ccc(NS(=O)(=O)c4cccs4)cc3)CC2)cc1`, the activity change, negative = inhibition was inactive: -7.1%.
With `COc1ccc(-n2c(=S)[nH]c3cc(C(=O)Nc4ccc(C)c(F)c4)ccc3c2=O)c(OC)c1` the activity change, negative = inhibition was active: -76.1%.
With `COc1ccc(NC(=O)CSc2nnc3ccc(-c4cccnc4)nn23)cc1` the activity change, negative = inhibition was inconclusive: -48.6%.
In the case of `Cc1ccc(S(=O)(=O)N2CCN(Cc3ccco3)CC2)cc1C`, the activity change, negative = inhibition is reported as inconclusive: -56.8%.
With `COc1ccc(N2CCN(c3oc(COc4ccccc4Cl)nc3C#N)CC2)cc1` the activity change, negative = inhibition was inactive: -13%.
With `CCc1ccccc1OCC(=O)Nc1ccc(S(=O)(=O)Nc2nc(C)cc(C)n2)cc1` the activity change, negative = inhibition was inconclusive: -40%.
In the case of `COc1ccc2nc3n(c(=O)c2c1)-c1cc2ccccc2cc1C(=O)NC3Cc1ccc(O)cc1` (configuration not stated), the activity change, negative = inhibition is reported as inconclusive: -57.4%.
In the case of `CC(=O)Nc1ccc(Oc2nc(-c3ccccn3)nc3ccccc23)cc1`, the activity change, negative = inhibition is reported as active: -102%.
For `COCc1ccc(C(=O)Nc2cccc(S(=O)(=O)N(C)c3ccccc3)c2)cc1`, the activity change, negative = inhibition was active: -95.8%.
In the case of `CCc1ccc(CNC(=O)c2c(C)oc3ncnc(N4CCOCC4)c23)cc1`, the activity change, negative = inhibition is reported as active: -61%.
For `CC1=C(C(=O)OCCNC(=O)c2ccccc2O)C(c2ccccc2[N+](=O)[O-])C(C(=O)OCC2CCCO2)=C(C)N1` (configuration not stated), the activity change, negative = inhibition was inconclusive: -45.1%.
In the case of `Cc1sc2ncn(CC(=O)NCCN(C)C)c(=O)c2c1S(=O)(=O)N1CCC(C)CC1`, the activity change, negative = inhibition is reported as inconclusive: -50.9%.
With `O=S(=O)(c1ccc(Br)cc1)n1c(Cc2ccccc2)nc2ccccc21` the activity change, negative = inhibition was inconclusive: -43.9%.
In the case of `N#Cc1cc2sc3nnc(-c4ccncc4)n3c2cc1C#N`, the activity change, negative = inhibition is reported as active: -62.1%.
In the case of `COC(=O)c1ccccc1S(=O)(=O)N1CCC(C(=O)OCC(=O)c2ccccc2OC)CC1`, the activity change, negative = inhibition is reported as inconclusive: -42.9%.
For `CCN(CC)C1=NC(=[N+](CC)CC)c2ccccc21`, the activity change, negative = inhibition was active: -103%.
In the case of `COc1cccc(OC)c1C(=O)NC(=S)Nc1ccc2c(c1)Cc1ccccc1-2`, the activity change, negative = inhibition is reported as inactive: 96.4%.
In the case of `CC(C)c1ccc(N2C(=O)CSC23C(=O)N(C)c2ccccc23)cc1` (configuration not stated), the activity change, negative = inhibition is reported as inactive: -11.8%.
For `C/C(=N\NC(=O)c1ccccc1OCc1ccc(F)cc1)c1ccccn1`, the activity change, negative = inhibition was active: -102%.
With `O=C(CC1Sc2ccccc2NC1=O)NCc1ccccc1` (configuration not stated) the activity change, negative = inhibition was inconclusive: -45.7%.
For `CCOc1cc(C=O)c(Br)cc1OC1CCCC1`, the activity change, negative = inhibition was active: -62%.
For `CCN(CC)C(=O)c1ccc(Nc2nnc(-c3ccc(C)c(S(=O)(=O)NC)c3)c3ccccc23)cc1`, the activity change, negative = inhibition was inconclusive: -52.2%.
For `CSc1ccccc1NC(=O)COc1ccc(Cl)cc1`, the activity change, negative = inhibition was inactive: -17.9%.
For `CC1(CCCc2ccc(N(CCCl)CCCl)cc2)NC(=O)NC1=O` (configuration not stated), the activity change, negative = inhibition was inconclusive: -41.8%.
For `O=C(Nc1ccc(C(F)(F)F)cc1)c1cc(-c2cccnc2)nc2ccc(Br)cc12`, the activity change, negative = inhibition was inconclusive: -50%.
With `Cc1ccc(OCC(=O)N2CCN(S(=O)(=O)c3ccccc3[N+](=O)[O-])CC2)cc1` the activity change, negative = inhibition was inconclusive: -45%.
In the case of `COc1cc(CNCCc2c[nH]c3ccccc23)cc(OC)c1`, the activity change, negative = inhibition is reported as inconclusive: -45.1%.
For `Cc1ccc(S(=O)(=O)N2CCOCC2)cc1C(=O)NNC(=O)c1ccoc1C`, the activity change, negative = inhibition was inconclusive: -42.5%.
With `Cc1nc(-c2cccc(NS(C)(=O)=O)c2)cs1` the activity change, negative = inhibition was inactive: 30.9%.
With `Cc1oc(-c2ccccc2Cl)nc1CSc1nc2ncccc2[nH]1` the activity change, negative = inhibition was inconclusive: -46.5%.
In the case of `O=S(=O)(NCC1CN(S(=O)(=O)c2c(F)cccc2F)C1)c1ccc2c(c1)OCCO2`, the activity change, negative = inhibition is reported as active: -62.4%.
For `c1ccc(CNc2nc(-c3cccs3)nc3ccccc23)cc1`, the activity change, negative = inhibition was active: -73.9%.
In the case of `CCCn1c(CN2CCN(c3cccc(Cl)c3)CC2)nc2c1c(=O)n(C)c(=O)n2C`, the activity change, negative = inhibition is reported as inconclusive: -53.7%.
In the case of `Cc1cccc(NC(=O)c2ccccc2NC(=O)c2ccco2)c1`, the activity change, negative = inhibition is reported as inactive: -10.3%.
In the case of `CCOc1ccc(S(=O)(=O)N2CCN(CCNS(=O)(=O)c3ccc(C)cc3)CC2)cc1`, the activity change, negative = inhibition is reported as inactive: -12.5%.
With `COc1ccc(/C=C/C(=O)Nc2ccc(N3CCOCC3)cc2)cc1` the activity change, negative = inhibition was inconclusive: -52%.
For `Cc1cc(NC(=O)CSc2nnc(-c3cccc(Cl)c3)o2)no1`, the activity change, negative = inhibition was inconclusive: -58.2%.
In the case of `Cc1cc(N/N=C/c2ccc(F)cc2)nc(-n2nc(C)cc2C)n1`, the activity change, negative = inhibition is reported as active: -96.4%.
In the case of `CC1CCCN(C(=O)c2ccc(S(=O)(=O)N3CCC(c4nc5ccccc5s4)CC3)cc2)C1` (configuration not stated), the activity change, negative = inhibition is reported as inconclusive: -42.8%.
In the case of `Cc1ccc(CSc2nc3ccccc3c(=O)n2C)cc1`, the activity change, negative = inhibition is reported as active: -65.4%.
In the case of `COc1ccc(CN2CCCC(CNC(=O)c3ccc(F)cc3)C2)c(F)c1` (configuration not stated), the activity change, negative = inhibition is reported as inconclusive: -44.8%.
With `Cc1ccc2nc(Cl)c(C3CC(c4ccco4)=NN3C(=O)CCCC(=O)O)cc2c1` (configuration not stated) the activity change, negative = inhibition was inconclusive: 0%.
With `Oc1ccc(-c2n[nH]c(=S)n2-c2ccc3c(c2)OCCO3)c(O)c1` the activity change, negative = inhibition was active: -101%.
For `O=C(CCCN1C(=O)/C(=C/c2cccs2)SC1=S)Nc1ccc(O)cc1`, the activity change, negative = inhibition was active: -92.8%.
With `CCN(CC)CCNC(=O)C1CCN(c2nn3cc(-c4ccc(F)cc4)nc3s2)CC1` the activity change, negative = inhibition was inconclusive: 0%.
With `CN(C/C=C/C#CC(C)(C)C)Cc1cccc2ccccc12` the activity change, negative = inhibition was active: -79.7%.
For `Nc1n[nH]c(C2CCCCC2)n1`, the activity change, negative = inhibition was inconclusive: -42.7%.
With `C=CCOC(=O)C1=C(C)NC(SCC)=C(C#N)C1c1ccc(Cl)cc1` (configuration not stated) the activity change, negative = inhibition was inactive: -29.8%.
With `Cc1ccc(/C=C/C(=O)NCc2ccc(S(N)(=O)=O)cc2)o1` the activity change, negative = inhibition was inconclusive: -59.4%.
With `O=C(Nc1cccc(S(=O)(=O)Nc2ccc(SC(F)F)cc2)c1)C1CCC1` the activity change, negative = inhibition was inactive: -26.1%.
For `CCOc1ccc(CNCc2c(C(=O)O)c(C)n(Cc3cccc(OC)c3)c2C)cc1OC`, the activity change, negative = inhibition was inactive: -14.2%.
In the case of `CCOc1cccc2cc(C(N)=O)c(=NCc3ccccc3)oc12`, the activity change, negative = inhibition is reported as inconclusive: -46.9%.
In the case of `O=C(Nc1ccccc1N1CCCCC1)c1ccc(Cl)cc1`, the activity change, negative = inhibition is reported as inconclusive: -53.5%.
With `CC1=C(C(=O)N2CCCCCC2)CC(CC(=O)NC2CCCCC2)C(=O)N1Cc1ccc(F)cc1` (configuration not stated) the activity change, negative = inhibition was inconclusive: -58.7%.
For `CCOC(=O)C(C)Sc1ncc(OC)c(Sc2ccc(Cl)cc2)n1` (configuration not stated), the activity change, negative = inhibition was inactive: -2%.
In the case of `CC1SC(c2ccc(Cl)cc2)NC1=O` (configuration not stated), the activity change, negative = inhibition is reported as inconclusive: -58.6%.
For `O=C(CN1C(=O)COc2ccc(Cl)cc21)Nc1ccc(F)cc1`, the activity change, negative = inhibition was inactive: -7.91%.
With `CSc1ccc(CN2CCN(Cc3ccccc3Cl)CC2)cc1` the activity change, negative = inhibition was inconclusive: -40.3%.
With `CC(C)Cn1c(/C=N/Nc2nc3ccccc3[nH]2)nc2ccccc21` the activity change, negative = inhibition was active: -97%.
